From paper PMC3627651 come the findings set out here.

By UniProt entry, the sequences of proteins in these tests, tags left out. Where a name states a change or a piece, a line headed by the entry shows the natural chain unless it says otherwise.
UniProt O42478: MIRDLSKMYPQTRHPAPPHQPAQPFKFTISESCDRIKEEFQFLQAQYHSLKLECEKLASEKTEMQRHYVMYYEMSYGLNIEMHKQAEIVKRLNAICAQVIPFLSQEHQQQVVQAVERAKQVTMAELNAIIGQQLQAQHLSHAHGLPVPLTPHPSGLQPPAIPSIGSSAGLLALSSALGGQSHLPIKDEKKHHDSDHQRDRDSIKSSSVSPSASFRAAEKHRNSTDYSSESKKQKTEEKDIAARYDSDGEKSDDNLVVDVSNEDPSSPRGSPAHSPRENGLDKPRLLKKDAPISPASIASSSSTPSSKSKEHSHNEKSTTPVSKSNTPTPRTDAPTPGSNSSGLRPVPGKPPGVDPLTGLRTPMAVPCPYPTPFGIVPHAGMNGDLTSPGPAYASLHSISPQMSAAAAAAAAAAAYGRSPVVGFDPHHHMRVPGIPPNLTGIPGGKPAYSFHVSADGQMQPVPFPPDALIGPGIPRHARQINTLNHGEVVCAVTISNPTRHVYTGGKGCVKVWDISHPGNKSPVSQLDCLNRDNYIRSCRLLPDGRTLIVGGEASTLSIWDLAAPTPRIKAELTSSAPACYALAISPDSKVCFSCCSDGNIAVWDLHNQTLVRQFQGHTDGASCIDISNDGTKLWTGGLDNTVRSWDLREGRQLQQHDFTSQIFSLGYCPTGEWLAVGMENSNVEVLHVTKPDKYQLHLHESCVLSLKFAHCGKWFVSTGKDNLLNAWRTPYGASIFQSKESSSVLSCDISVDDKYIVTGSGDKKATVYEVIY
UniProt Q9PRJ8: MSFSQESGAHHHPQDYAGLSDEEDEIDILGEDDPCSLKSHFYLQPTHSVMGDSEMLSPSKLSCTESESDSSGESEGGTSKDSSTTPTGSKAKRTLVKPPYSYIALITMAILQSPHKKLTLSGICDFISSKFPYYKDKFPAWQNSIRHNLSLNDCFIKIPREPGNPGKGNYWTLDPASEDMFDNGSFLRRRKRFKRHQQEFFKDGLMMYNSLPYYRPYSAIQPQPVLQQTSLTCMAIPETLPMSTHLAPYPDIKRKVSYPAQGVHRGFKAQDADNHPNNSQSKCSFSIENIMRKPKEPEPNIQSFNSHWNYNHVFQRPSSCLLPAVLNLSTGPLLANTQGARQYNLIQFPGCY

The target of this assay is HA-tagged wild-type Xenopus Grg4 (Xenopus) (UniProt O42478). The experiment in a line: co-IP; Xenopus oocytes co-injected with mRNAs for myc-tagged FoxD4L1 (wild type or C-terminal mutant) and HA-tagged Grg4; lysate (15 oocyte equivalents) in TNSG lysis buffer with 1 ug antibody (raised against HA or Flag), protein A/G agarose beads, 4 C overnight; Western blot. (In general: Immunoblotting shows a protein as a band on a membrane.)

These are yes or no findings as the source states them, for the method shown. In cells and extracts the contact can be indirect. Binding calls can cover weak binding; strength is not graded here.

In the case of “myc-tagged wt-FoxD4L1 (from UniProt Q9PRJ8)”, the binding entry is on record as “binds”.
